One experiment has as its target hSERT (Homo sapiens, UniProt P31645). Briefly: SERT radioligand binding assay ([125I]RTI-55, HEK-hSERT membranes). To be noted: read-out: SERT IC50, HEK-293 hSERT membranes, 260 pM [125I]RTI-55, 1 hour at room temperature. How it is done:
(§1) NK-1 Binding assay. Crude membrane suspensions were prepared for the NK1 and SERT radioligand binding assays from U373 cells or recombinant HEK-293 cells expressing hSERT, respectively. Cells were harvested from T-175 flasks as follows. The medium is removed from the flasks and the cells rinsed with HBSS without Ca and without Mg. The cells are then incubated for 5-10 minutes in 10 mM Tris-Cl, pH 7.5, 5 mM EDTA before the cells are lifted with a combination of pipetting and scraping, as needed. To prepare membranes, the cell suspension is collected into centrifuge bottles and homogenized for 30 seconds with a Polytron homogenizer. The suspension is centrifuged for 30 min@32,000×g, 4° C., then the supernatant is decanted and the pellet resuspended and homogenized in 50 mM Tris-Cl, pH 7.5, 1 mM EDTA for 10 seconds. The suspension is then centrifuged again for 30 min@32,000×g, 4° C. The supernatant is decanted and the pellet resuspended in 50 mM Tris-Cl, pH 7.5, 1 mM EDTA and briefly homogenized. […]
SERT radioligand binding assay. […] The plates are air-dried overnight, 12 ul/well of MicroScint scintillation fluid added, and the plates counted in a Trilux.
(§2) Data analysis. […] The radioligand concentration chosen for each assay corresponds to the Kd concentration determined through saturation binding analysis for each assay.

The chains behind the UniProt entries cited, without tags or fusion partners.
UniProt P31645, whole entry: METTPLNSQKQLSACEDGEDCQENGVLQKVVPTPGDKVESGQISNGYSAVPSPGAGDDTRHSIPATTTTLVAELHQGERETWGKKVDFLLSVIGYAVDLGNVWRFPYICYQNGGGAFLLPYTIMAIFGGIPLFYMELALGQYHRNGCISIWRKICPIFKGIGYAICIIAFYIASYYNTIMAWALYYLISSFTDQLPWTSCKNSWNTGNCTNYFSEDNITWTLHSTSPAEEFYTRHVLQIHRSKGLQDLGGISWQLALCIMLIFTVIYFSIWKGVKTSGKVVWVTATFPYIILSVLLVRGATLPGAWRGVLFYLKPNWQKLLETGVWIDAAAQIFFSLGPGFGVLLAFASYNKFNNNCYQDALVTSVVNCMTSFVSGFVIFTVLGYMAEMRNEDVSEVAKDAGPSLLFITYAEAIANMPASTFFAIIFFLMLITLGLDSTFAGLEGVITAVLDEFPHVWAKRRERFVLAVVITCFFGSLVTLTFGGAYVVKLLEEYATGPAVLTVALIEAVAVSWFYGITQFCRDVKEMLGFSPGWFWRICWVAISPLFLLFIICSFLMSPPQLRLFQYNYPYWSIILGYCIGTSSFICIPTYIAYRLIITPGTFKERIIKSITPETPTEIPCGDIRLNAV
UniProt P25103, whole entry: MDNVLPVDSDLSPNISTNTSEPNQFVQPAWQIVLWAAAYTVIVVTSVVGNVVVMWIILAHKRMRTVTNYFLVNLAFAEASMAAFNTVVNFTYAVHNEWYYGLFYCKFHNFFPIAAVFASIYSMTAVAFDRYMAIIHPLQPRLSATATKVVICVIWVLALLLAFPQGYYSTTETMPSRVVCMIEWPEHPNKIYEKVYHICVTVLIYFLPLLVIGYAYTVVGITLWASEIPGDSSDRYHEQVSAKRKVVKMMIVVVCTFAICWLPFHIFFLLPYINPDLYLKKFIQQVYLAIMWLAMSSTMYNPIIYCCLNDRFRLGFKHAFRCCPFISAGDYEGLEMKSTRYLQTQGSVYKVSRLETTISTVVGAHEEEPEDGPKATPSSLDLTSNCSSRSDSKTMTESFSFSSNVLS

A further experiment addresses NK-1 (Homo sapiens, UniProt P25103). The experiment in a line: NK1 radioligand binding assay ([125I]Substance P, U373 membranes). Conditions: read-out: NK-1 IC50, U373 cell membranes, 200 pM [125I]Substance P, 1 hour at room temperature. Here is the method:
as §1
NK1 radioligand binding assay. […] The plates are air-dried overnight, 12 ul/well of MicroScint scintillation fluid added, and the plates counted in a Trilux.
as §2

Like-named read-outs stand apart in the source and are kept apart here. Structures were worked out from names or drawings and are uncertain.

As for `CN1CCC(COCc2cc(C(F)(F)F)cc3nc[nH]c23)(c2ccccc2)CC1`, the IC50 at hSERT (tested form: TFA) fell in the range of 0.01 to 100 nM; on NK-1 (tested form: TFA), 100 to 300 nM.

As to `CC(OCC1(c2ccccc2)CCNCC1)c1cc(Cl)cc2cn(C)nc12` (racemic), the IC50 on hSERT and on NK-1 was 0.01 to 100 nM in each case.

For the origin of these results see patent publication US8026257B2 (Bristol-Myers Squibb Company, priority 2007, dated 2011).
